# Measurements published in PubChem BioAssay AID445 (National Center for Advancing Translational Sciences (NCATS), 2006).
# The other results are listed elsewhere or left out. The main result of the screen is listed elsewhere. These columns were measured beside it and carry no call. Compounds called inactive in the main read-out are mostly missing here. Words in brackets tell the shape of the fitted curve; partial curves, single points and poor fits give uncertain potencies.
# Experiment: IkB Signaling
# Settings: ABC-DLBCL IkBa-CBG/CBR dual luciferase ratio (green luciferase fused to IkBa over red control in OCI-Ly3 lymphoma cells), 4 h
# Outline: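 Curves were fitted separately to fusion (green), unfused (red) and ratio luminescence, then classed by r2, magnitude and activity. Cells: OCI-Ly3, 4 h compound plus doxycycline at 37C; 10 uM MG-132 defined full response.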
# [1] = measured here: control luc red channel unless noted
smiles,measurement,setting,value
O=C(Nc1ccc(Br)cc1)c1ccc(Cl)c(S(=O)(=O)N2CCCCCC2)c1,AC50,[1],"10 µM [falling, partial curve]"
COc1cccc(NC(=O)c2sc3nc(C)c(C(=O)Nc4ccc(C)cc4C)c(-c4cccs4)c3c2N)c1,AC50,[1],"6.31 µM [falling, partial curve]"
CSc1nc2ccc(Nc3nc(N4CCOCC4)nc(N4CCOCC4)n3)cc2s1,AC50,[1],"3.98 µM [falling, full curve, poor fit]"
Cc1ccn2c(Nc3c(C)cccc3C)c(-c3ccc(Cl)s3)nc2c1,AC50,[1],"10 µM [falling, partial curve]"
Cc1ccc(OCc2nc(C#N)c(NCc3ccc4c(c3)OCO4)o2)cc1,AC50,measured here: IkB-luc green channel,"39.8 µM [falling, single point]"
same,AC50,measured here: control luc red channel,"15.8 µM [falling, partial curve]"
CCCCN(CCCC)C1=C(C(=O)c2ccccc2)N(CC)S(=O)(=O)c2ccccc21,AC50,[1],"5.01 µM [falling, partial curve]"
O=C(Cc1ccc2c(c1)OCCO2)c1c(O)cc(O)cc1O,AC50,[1],"12.6 µM [falling, partial curve]"
Cc1cc(C)c2nc(-c3ccccn3)cc(C(=O)NCc3ccco3)c2c1,AC50,[1],"15.8 µM [falling, partial curve]"
Cc1ccc(-c2nc(CSCC(=O)N3CCN(c4ccccn4)CC3)c(C)o2)cc1,AC50,[1],"7.94 µM [falling, partial curve]"
O=c1oc2ccc(F)cc2cc1-c1nc(-c2cccs2)no1,AC50,[1],"1.58 µM [falling, partial curve]"
Cc1cc2nc(C3CCN(CC4COc5ccccc5O4)CC3)[nH]c2cc1C (stereo unspecified),AC50,[1],"25.1 µM [falling, single point]"
CCOc1ccc(NC(=O)c2oc(=O)c3ccccc3c2-c2ccc(C)cc2)cc1,AC50,[1],"39.8 µM [falling, partial curve]"
CCn1c2c(c(=O)n3ncc(C(=O)Nc4ccc(F)cc4Cl)c13)CN(Cc1ccc(OC)cc1)CC2,AC50,[1],"12.6 µM [falling, partial curve]"
COc1ccc(-c2nnc(Nc3ccc(OC)c(C(N)=O)c3)c3ccccc23)cc1,AC50,[1],"15.8 µM [falling, partial curve]"
Cc1ccc(C2CC(c3cccc(Br)c3)Nc3nnnn32)cc1 (stereo unspecified),AC50,[1],"25.1 µM [falling, partial curve]"
CCc1ccc2oc(-c3cccc(NC(=O)C(C)(C)Oc4ccc(Br)cc4)c3)nc2c1,AC50,[1],"2.51 µM [falling, full curve]"
Cc1cc(C)cc(Nc2ncnc3onc(-c4ccc(F)cc4)c23)c1,AC50,[1],"25.1 µM [falling, single point]"
COc1cc(OC)cc(C(=O)N(Cc2nc(-c3cccc(C)c3)no2)C(C)C)c1,AC50,[1],"15.8 µM [falling, partial curve]"
COc1cccc(-n2c(SCC(=O)N3CCCc4ccccc43)nc3c([nH]c4ccccc43)c2=O)c1,AC50,[1],"0.251 µM [falling, full curve]"
COc1cc(NC(=O)NC(C)c2c(-n3cccc3)sc3c2CCN(C)C3)cc(OC)c1 (stereo unspecified),AC50,[1],"39.8 µM [falling, single point]"
C=CCc1cccc(CNc2nc3ccccc3n2CC)c1O,AC50,[1],"31.6 µM [falling, single point]"
COc1ccc(Cl)cc1NC(=O)Cn1c(=O)n(CCCC(=O)NCCc2ccc(OC)c(OC)c2)c(=O)c2ccccc21,AC50,[1],"15.8 µM [falling, partial curve]"
Cc1ccc(N(CC(=O)Nc2ccc3c(c2)OCCO3)S(=O)(=O)c2c(C)noc2C)cc1,AC50,[1],"15.8 µM [falling, partial curve]"
COc1cccc(-c2nn(C)c3sc(C(=O)N4CCN(c5ccccc5)CC4)cc23)c1,AC50,[1],"5.01 µM [falling, partial curve]"
CCOC(=O)Cc1csc(NC(=O)CSc2nnc(-n3nc(C)cc3C)c3ccccc23)n1,AC50,[1],"20 µM [falling, partial curve]"
CCn1c(C)c(C)c2cc(C(=O)N3CCN(c4cccc(C)c4C)CC3)ccc21,AC50,[1],"25.1 µM [falling, partial curve]"
CCOc1ccc(-n2c(=O)c3c4c(sc3n(CC(=O)NC(C)CC)c2=O)CCC4)cc1 (stereo unspecified),AC50,[1],"1.26 µM [rising, full curve, poor fit]"
CCOC(=O)c1ccc(N2C(=O)c3n[nH]c(-c4cccs4)c3C2c2cccc(OC)c2)cc1 (stereo unspecified),AC50,[1],"12.6 µM [falling, partial curve]"
CN(C)S(=O)(=O)N(CC(=O)NCCSCc1cccc(Cl)c1)c1ccccc1,AC50,[1],"15.8 µM [falling, single point]"
CCC(=O)Nc1ccc2nc(SCc3ccccc3)sc2c1,AC50,[1],"0.501 µM [rising, partial curve]"
COc1ccc(C)cc1NC(=O)CSc1nc(=O)[nH]c2c1CCCC2,AC50,[1],"10 µM [falling, partial curve, poor fit]"
CCC1CN(S(=O)(=O)c2ccc3c(c2)NC(=O)CC(=O)N3)c2cc(Cl)ccc2O1 (stereo unspecified),AC50,[1],"3.16 µM [falling, full curve]"
Cc1cccc(N2CCN(C(=O)CCC(=O)NNc3nc4ccccc4c4nc(C)nn34)CC2C)c1 (stereo unspecified),AC50,[1],"25.1 µM [falling, single point]"
CCC(=O)O[C@@]1(C(=O)CCl)[C@@H](C)C[C@@H]2[C@H]3CCC4=CC(=O)C=C[C@@]4(C)[C@]3(F)[C@@H](O)C[C@@]21C,AC50,[1],"12.6 nM [rising, full curve] [measured here: IkB-luc green channel]"
CC(=O)[C@]1(O)CC[C@@H]2[C@H]3C[C@@H](C)C4=CC(=O)CC[C@@]4(C)[C@H]3[C@@H](O)C[C@]21C,AC50,[1],"2.51 nM [rising, full curve] [measured here: IkB-luc green channel]"
CCOc1ccc(CNCc2c(C(=O)O)n(Cc3ccc(OC)cc3)c3ccccc23)cc1,AC50,[1],"12.6 µM [falling, partial curve]"
COc1ccc(-c2nc3c(C#N)c[nH]n3c2NC2CCCC2)cc1,AC50,[1],"15.8 µM [falling, partial curve]"
Cc1ccc(NC(=O)Cn2c(=O)n(CCCS(=O)(=O)C3CCCCC3)c(=O)c3ccccc32)cc1F,AC50,[1],"12.6 µM [falling, partial curve]"
CC(NC(=O)c1ccc(Cn2c(=O)c3cccn3c3cccnc32)cc1)c1ccccc1 (stereo unspecified),AC50,[1],"31.6 µM [falling, single point]"
O=C(C1COc2ccccc2O1)N1CCN(Cc2ccc3c(c2)OCO3)CC1 (stereo unspecified),AC50,[1],"15.8 µM [falling, partial curve]"
Cc1ccc(C)c(Nc2nc3c(S(=O)(=O)c4ccc(Br)cc4)nnn3c3ccsc23)c1,AC50,[1],"7.94 µM [falling, full curve]"
O=C(Nc1ccc(F)c(F)c1)c1cc(S(=O)(=O)NCc2ccc3c(c2)OCO3)ccc1F,AC50,[1],"0.00631 µM [falling, full curve]"
Cc1ccc(CNC(=O)CSc2nc(=O)n(Cc3ccco3)c3c2CCC3)cc1,AC50,[1],"31.6 µM [falling, single point]"
O=C(NCCOc1ccccc1)c1cc2ccccc2o1,AC50,[1],"3.98 µM [falling, full curve]"
COc1ccc(C2=NC3(CCCCCC3)N(CC(=O)Nc3cccc(Cl)c3)C2=O)cc1,AC50,[1],"10 µM [falling, partial curve]"
COc1cccc(CNC(=O)CN2CCCN(Cc3ccccc3)S2(=O)=O)c1,AC50,[1],"0.02 µM [rising, full curve, poor fit]"
CC1CCN(c2ccc(-c3cccc(NS(=O)(=O)c4cccs4)c3)nn2)CC1,AC50,[1],"10 µM [falling, partial curve]"
CCCNc1nc2c(c(=O)n(C)c(=O)n2C)n1CCC(C)C,AC50,[1],"20 µM [falling, partial curve]"
COc1ccccc1CNc1ccc(-c2nc(-c3ccccc3C)no2)cc1[N+](=O)[O-],AC50,[1],"3.16 µM [falling, full curve]"
Cc1cc(C)cc(NC(=O)C2CCN(C(=O)c3cnn(-c4ccccc4)c3-n3cccc3)CC2)c1,AC50,[1],"20 µM [falling, partial curve]"
CCC(C(=O)Nc1ccccc1)n1nc(-c2cc(C)ccc2C)ccc1=O (stereo unspecified),AC50,[1],"25.1 µM [falling, single point]"
Cc1ccc(CN2C(=O)C(=O)c3cc(Br)cc(C)c32)cc1,AC50,[1],"31.6 µM [falling, single point]"
O=C(CN1CCN(Cc2ccc3c(c2)OCO3)CC1)N1CCc2[nH]c3ccc(F)cc3c2C1,AC50,[1],"10 µM [falling, partial curve]"
Cc1ccccc1Nc1c(-c2cccnc2)nc2cccc(C)n12,AC50,[1],"20 µM [falling, partial curve]"
CCOc1ccc(-n2c(=O)c3c(C)c(C)sc3n(CC(=O)Nc3ccc(CC)cc3)c2=O)cc1,AC50,[1],"7.94 µM [falling, partial curve]"
CCN(C(=O)c1cc2c(=O)n(CC)c3ccccc3c2s1)c1cccc(C(F)(F)F)c1,AC50,[1],"20 µM [falling, partial curve]"
COc1ccc(Br)cc1CNC(=O)c1cnc2sc(N3CCCCCC3)nn2c1=O,AC50,[1],"31.6 µM [falling, single point]"
COc1cccc(NC(=O)Cn2c(=O)ccc3cc(S(=O)(=O)N4CCC(C)CC4)ccc32)c1,AC50,[1],"0.0316 µM [falling, full curve, poor fit]"
COc1ccc(-c2cc(-c3c(O)c(OC)c4occc4c3OC)[nH]n2)cc1OC,AC50,[1],"25.1 µM [falling, single point]"
COc1ccc(Cl)cc1S(=O)(=O)N1CCN(CC(=O)Nc2ccccc2C(F)(F)F)CC1,AC50,[1],"39.8 µM [falling, partial curve]"

# Not a retest: entries from further up.
smiles,measurement,setting,value
CCOc1ccc(CNCc2c(C(=O)O)n(Cc3ccc(OC)cc3)c3ccccc23)cc1,AC50,[1],"12.6 µM [falling, partial curve]"
COc1ccc(-c2nc3c(C#N)c[nH]n3c2NC2CCCC2)cc1,AC50,[1],"15.8 µM [falling, partial curve]"
Cc1ccc(NC(=O)Cn2c(=O)n(CCCS(=O)(=O)C3CCCCC3)c(=O)c3ccccc32)cc1F,AC50,[1],"12.6 µM [falling, partial curve]"
